According to US20050124581A1, “Alpha-substituted heteroarylalkyl phosphonate derivatives” (priority 2002, published 2005):
Some of these results come from one statement about several compounds together.

System: plasma Lp(a)
Assay: In vivo plasma Lp(a) lowering in male cynomolgus monkeys
Settings: 50 mg/kg/day orally by gavage for 2 weeks; measured at Day 7 or 14

Compound | Change in plasma Lp(a), % changes from pre-dose at Day −1
Diethyl β-(4-hydroxy-3-methoxy-5-methylphenyl)-α-(3-pyridyl)-ethylphosphonate [Compound 23] | −20% to −29

System: apo (a)
Assay: apo (a) secretion in primary cultures of Cynomolgus monkey hepatocytes (ELISA)
Assay type: cell-based
Settings: 20 μM test compound, 6-24 hours incubation

Compound | Change in apo (a) secretion in culture medium, percentage of value measured for the control plates
diethyl β-(3-ethoxy-4-hydroxyphenyl)-α-(3-pyridyl)ethylphosphonate [Compound 14] | −15% to −40
CCOP(=O)(OCC)C(Cc1cc(OC)c(O)c(OC)c1)c1cccnc1 (racemic) [Compound 18, diethyl β-(3,5-dimethoxy-4-hydroxyphenyl)-α-(3-pyridyl)ethylphosphonate] | −15% to −40
Diethyl β-(4-hydroxy-3-methoxy-5-methylphenyl)-α-(3-pyridyl)-ethylphosphonate [Compound 23] | −15% to −40
CCOP(=O)(OCC)C(Cc1cc(OC)c(O)c(OC)c1)c1ccc(C)nc1 (stereo not drawn) [Compound 20, diethyl β-(3,5-dimethoxy-4-hydroxyphenyl)-α-(5-(2-methylpyridyl))ethylphosphonate] | −15% to −40
CCOP(=O)(OCC)C(Cc1cc(C)c(O)c(C)c1C)c1cccnc1 (racemic) [Compound 16, diethyl β-(4-hydroxy-2,3,5-trimethylphenyl)-α-(3-pyridyl)ethylphosphonate] | −15% to −40
